Test system: Sham surgery C57BL/6 mice
Assay: Transthoracic echocardiography, sham surgery mice (CoPP and pNaKtide study)
Format: in vivo, mouse
Conditions: Sham + CoPP (5 mg/kg BW ip), n = 12, mean ± SE

Structure (SMILES): C=CC1=C(C)c2cc3[n-]c(cc4nc(cc5[n-]c(cc1n2)c(C)c5CCC(=O)[O-])C(CCC(=O)[O-])=C4C)c(C)c3C=C.[Co+2].[H+].[H+] [CoPP, cobalt protoporphyrin]
- AWT, anterior wall thickness: 0.67 ± 0.02 mm
- BW, body weight: 28.4 ± 0.6 g
- CO, cardiac output: 11.0 ± 0.6 mL/min
- EDA, end diastolic area: 28.4 ± 0.5 mm^2
- EDD, end diastolic dimension: 4.5 ± 0.04 mm
- EF, ejection fraction: 57.0 ± 2.2%
- ESA, end systolic area: 18.3 ± 0.5 mm^2
- ESD, end systolic dimension: 3.4 ± 0.1 mm
- FS, fractional shortening: 24.7 ± 1.3%
- LVMI, left ventricle mass index: 3.7 ± 0.1
- MPI, myocardial performance index: 0.40 ± 0.01
- PWT, posterior wall thickness: 0.60 ± 0.01 mm
- PaD, pulmonary artery dimension: 1.0 ± 0.02 mm
- PaVTI, pulmonary artery Velocity time integral: 30.6 ± 1.0
- RWT, relative wall thickness: 0.28 ± 0.01

Reference: US20200085918A1, “COMPOSITIONS AND METHODS FOR TREATMENT OF UREMIC CARDIOMYOPATHY” (priority 2016, published 2020)
